Results on 65 compounds are retold here after PubChem BioAssay AID493014 (National Center for Advancing Translational Sciences (NCATS), 2011).

The other results are listed elsewhere or left out. The main result of the screen is listed elsewhere. These columns were measured beside it and carry no call. Compounds called inactive in the main read-out are mostly missing here. Words in brackets tell the shape of the fitted curve; partial curves, single points and poor fits give uncertain potencies.

This assay is described as follows: qHTS Assay to Find Inhibitors of Chronic Active B-Cell Receptor Signaling. To be noted: ABC-DLBCL IkBa-CBG/CBR reporter, luminescence ratio (green luciferase fused to IkBa over red control in TMD8 lymphoma cells), 4 h. The gist of the method: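 Concentration-response series (up to 46 uM) were applied to TMD8 dual-reporter cells for 4 h at 37C with doxycycline. Green/red ratio, after filter-overlap correction, defined %Activity; red signal alone was normalised to basal cells and zero luminescence.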
In general terms: Quantitative high-throughput screening tests each substance at several concentrations.

[1] abbreviates: measured here: CBR red luminescence, cell number.
The mark [2] stands for this setting: measured here: IkBa-CBG green luminescence.

One may read the AC50 as the concentration at which the activity in the assay is half-maximal. In the case of `Cc1c(C(=O)N2CCc3ccccc32)oc2c1C(=O)CC(C)(C)C2`, the half-maximal activity concentration (AC50) under setting [1] is 2.91 µM [rising, single point].

Regarding `CCN(CC)C(=O)CN(c1cccc(Br)c1)S(C)(=O)=O`, under setting [1], the half-maximal activity concentration (AC50) was 35.5 µM [rising, single point].

Regarding `N#CCc1cnc2ccccc2n1`, the half-maximal activity concentration (AC50) under setting [1] was 3.16 µM [falling, partial curve, poor fit].

For `CC(NC(=O)c1nn(C)c(=O)c2ccccc12)c1ccc(F)cc1` (configuration not stated), the AC50 under setting [1] was 23.1 µM [rising, partial curve].

With `Cc1ccc(-c2nc3ccccc3s2)cc1NC(=S)NC(=O)c1ccccc1`, under setting [1], the concentration at half-maximal activity (AC50) is 0.316 µM [rising, full curve].

Take `Cc1ccc2nc(NC(=O)CSCC(=O)OCC(=O)c3ccc(Br)cc3)sc2c1`: the half-maximal activity concentration (AC50) under setting [1] was 2.51 µM [falling, full curve, poor fit].

As to `C=CCN(c1ccccc1C(=O)O)S(=O)(=O)c1ccc(C)cc1`, under setting [1], the concentration at half-maximal activity (AC50) is 12.6 µM [falling, single point].

Take `Cc1cc(CNC(=O)c2cc(Br)ccc2Cl)nn1C`: under setting [1], the concentration at half-maximal activity (AC50) is 4.11 µM [rising, full curve, poor fit].

On to `CN(CC(=O)Nc1cccc(F)c1)C(=O)c1cccnc1Sc1ccc(Cl)cc1`, for which the concentration at half-maximal activity (AC50) under setting [1] is 11.6 µM [falling, partial curve, poor fit].

On to `COc1ccc2c(CC(=O)Nc3nnc(C4CC4)s3)coc2c1`, for which the AC50 under setting [1] is 1.64 µM [falling, partial curve, poor fit].

As for `Cc1ccc(/C=C/C(=O)NC2CCS(=O)(=O)C2)cc1` (configuration not stated), the AC50 under setting [1] is 0.282 µM [rising, full curve, poor fit].

Regarding `CCOc1ccc(C(=O)CCN2CCCCCC2)cc1`, under setting [1], the half-maximal activity concentration (AC50) was 17.8 µM [falling, single point].

`O=C(/C=C/c1cccc(O)c1)c1ccc(N2CCOCC2)cc1`: under setting [1], the AC50 was 17.8 µM [falling, partial curve, poor fit].

Take `Cc1[nH]n(CCC#N)c(=O)c1CC(=O)N1CCN(c2ccccc2)CC1`: the concentration at half-maximal activity (AC50) under setting [1] was 14.1 µM [rising, single point].

As to `COc1ccc(NC(=O)c2ccc(-c3nn(C)c(=O)c4ccccc34)cc2)cc1C(N)=O`, the half-maximal activity concentration (AC50) under setting [1] was 0.251 µM [rising, full curve, poor fit].

As to `O=C(CCCCCBr)N1CCC(CC2CC(c3cccc(Br)c3)=NO2)(C(=O)NCC2CCCCC2)CC1` (configuration not stated), under setting [1], the AC50 is 11.2 µM [falling, partial curve].

As for `CCOC(=O)C(CC)Sc1nc2c(c(=O)[nH]c(=O)n2C)n1CCc1ccccc1` (configuration not stated), the half-maximal activity concentration (AC50) under setting [1] was 5.01 µM [falling, partial curve, poor fit].

In the case of `COc1cccc(NC(=O)c2ccc(NC(=O)C3CC(=O)OC34CCCCC4)cc2)c1` (configuration not stated), the concentration at half-maximal activity (AC50) under setting [1] was 20 µM [falling, single point] and the AC50 under setting [2] was 14.1 µM [rising, partial curve, poor fit].

As to `Cc1cc(S(=O)(=O)NCCN2CCOCC2)ccc1Cl`, the AC50 under setting [1] is 1.41 µM [rising, partial curve].

Regarding `Cc1noc(C)c1CSCC(=O)Nc1cc(Cl)ccc1N1CCCCC1`, the AC50 under setting [1] is 5.8 µM [falling, partial curve].

With `O=C(CCl)Nc1ccccc1Sc1ccc(Cl)cc1`, the half-maximal activity concentration (AC50) under setting [1] was 10.3 µM [falling, partial curve, poor fit].

On to `COCCN(Cc1cc2ccccc2[nH]c1=O)C(=O)c1ccccc1OC`, for which the AC50 under setting [1] is 29.1 µM [rising, single point].

Regarding `O=C(CSc1c2c(nc3ccc(Cl)cc13)CCCC2)NCCCN1CCOCC1`, the half-maximal activity concentration (AC50) under setting [1] is 25.1 µM [falling, single point].

Take `CCCCn1c(SCC(=O)Nc2cc(C(F)(F)F)cc(C(F)(F)F)c2)nnc1C(CC)N(C)C` (configuration not stated): the AC50 under setting [1] was 5.8 µM [falling, partial curve, poor fit].

Take `CCc1ccc(N(CC(=O)Nc2sc3c(c2C(=O)OC)CCCC3)S(C)(=O)=O)cc1`: the half-maximal activity concentration (AC50) under setting [1] is 29.1 µM [rising, single point].

Take `O=S(=O)(NCC1CCCO1)c1cc(Cl)ccc1Cl` (configuration not stated): under setting [1], the AC50 was 0.116 µM [falling, full curve, poor fit].

As for `COc1ccc(/C=N/NC(=O)c2cccc(Br)c2)cc1CN1CCOCC1`, the AC50 under setting [1] is 10 µM [falling, partial curve].

Turning to `Cc1ccc(NC(=O)c2cncc(Br)c2)c([N+](=O)[O-])c1`, under setting [1], the half-maximal activity concentration (AC50) is 0.058 µM [rising, full curve, poor fit].

As to `Cc1cc(C)c(C#N)c(SCc2ccccc2F)n1`, under setting [1], the AC50 was 14.1 µM [rising, partial curve, poor fit].

Turning to `O=C(O)C1CC(=O)N(C2CCCCCC2)C1` (configuration not stated), the AC50 under setting [1] was 29.1 µM [rising, single point].

`Nc1ncnc(Nc2cccc(C(F)(F)F)c2)n1`: the half-maximal activity concentration (AC50) under setting [1] is 3.16 µM [rising, partial curve].

With `CC(C)CN(C(=O)c1ccco1)C1CCS(=O)(=O)C1` (configuration not stated), the AC50 under setting [1] is 9.2 µM [falling, partial curve].

With `COc1cccc2sc3cc(NCc4ccc5c(c4)OCO5)ccc3c(=O)c12`, the AC50 under setting [1] was 8.2 µM [falling, partial curve, poor fit].

As for `COc1ccc(/C=C\c2nc(=O)c3ccccc3o2)cc1`, under setting [1], the AC50 was 0.708 µM [falling, full curve].

`Cc1ccc(-c2nnn(CC(=O)N(Cc3ccco3)C(C(=O)NC(C)(C)C)c3cccs3)n2)o1` (configuration not stated): the half-maximal activity concentration (AC50) under setting [1] is 6.51 µM [falling, single point].

As to `CCOc1cc(CN2CCCC(CNC(=O)c3ccc(F)cc3)C2)ccc1OC` (configuration not stated), the half-maximal activity concentration (AC50) under setting [1] was 15.8 µM [rising, partial curve, poor fit].

For the compound `Cc1cc(NC(=O)C(Cl)c2ccccc2)no1` (configuration not stated), the AC50 under setting [1] is 4.47 µM [falling, partial curve, poor fit].

Consider `COC(=O)c1sccc1NC(=O)/C=C/c1c(Cl)cccc1Cl`, for which, under setting [1], the half-maximal activity concentration (AC50) was 29.1 µM [falling, single point].

For `O=C(O)c1ccc(COc2ccc3ccccc3c2/C=C2/NC(=O)N(c3ccccc3)C2=O)cc1`, the concentration at half-maximal activity (AC50) under setting [1] was 2.51 µM [falling, full curve].

As for `COc1cccc(CNc2nc(-c3cccnc3)nc3ccccc23)c1`, the concentration at half-maximal activity (AC50) under setting [1] was 35.5 µM [falling, single point].

Consider `O=C(O)CSc1nnc(NC(=O)CN2CCOCC2)s1`, for which the AC50 under setting [1] was 35.5 µM [rising, single point].

With `CCOc1ccccc1N1CCN(C(=O)c2ccncc2)CC1`, under setting [1], the AC50 was 0.00517 µM [rising, full curve, poor fit].

On to `COc1ccc(OC)c(Nc2nc3ccc(C)cc3n3cnnc23)c1`, for which the AC50 under setting [1] is 15.8 µM [rising, partial curve, poor fit].

With `O=C(CCc1ccccc1)N/N=C/c1cccc(O)c1`, the AC50 under setting [1] is 3.16 µM [rising, single point].

As for `CCCCS(=O)(=O)N1CN(S(=O)(=O)CCCC)C2NC(=O)NC21` (configuration not stated), the AC50 under setting [1] was 35.5 µM [falling, single point].

Regarding `O=C(c1cc(-c2ccc(Br)cc2)n[nH]1)N1CCN(C(=O)c2ccccc2Br)CC1`, under setting [1], the half-maximal activity concentration (AC50) is 35.5 µM [falling, single point].

Take `Cc1ccc([N+](=O)[O-])cc1NC(=O)Nc1ccc(S(N)(=O)=O)cc1`: the concentration at half-maximal activity (AC50) under setting [1] is 0.178 µM [rising, full curve, poor fit].

With `O=C(OCc1c(-c2ccccc2)ncc2ccccc12)c1cccs1`, the AC50 under setting [1] was 29.1 µM [falling, single point].

Regarding `COc1cc(O)cc(O)c1C(=O)/C=C/c1ccccc1`, the half-maximal activity concentration (AC50) under setting [1] is 35.5 µM [falling, partial curve, poor fit].

Regarding `Cc1ccc(NC(=O)c2ccc3c(c2)CCN3S(C)(=O)=O)cc1C`, under setting [1], the half-maximal activity concentration (AC50) is 35.5 µM [falling, partial curve, poor fit].

In the case of `CCn1c(C)cs/c1=N\C(=S)Nc1ccccc1C`, the AC50 under setting [1] was 13 µM [rising, partial curve, poor fit].

For the compound `Cc1ccc(S(=O)(=O)NCC(=O)N2CCC(C)CC2)cc1`, the half-maximal activity concentration (AC50) under setting [1] is 0.517 µM [falling, full curve, poor fit].

With `O=C(N/N=C/c1cccs1)c1cccnc1`, the AC50 under setting [1] is 35.5 µM [falling, single point].

Take `CCc1ccc2oc(=O)cc(CN3CCOCC3)c2c1`: the AC50 under setting [1] is 2.91 µM [rising, partial curve, poor fit].

Take `CCCCCCSc1nc2c(c(=O)[nH]c(=O)n2C)n1C`: under setting [1], the half-maximal activity concentration (AC50) is 32.6 µM [rising, single point].

Consider `COc1ccc(CNC(=O)CSCc2c(F)cccc2Cl)cc1`, for which the AC50 under setting [1] was 7.08 µM [rising, full curve, poor fit].

Turning to `COc1ccc(NC(=O)c2ccco2)c([N+](=O)[O-])c1`, the half-maximal activity concentration (AC50) under setting [1] is 29.1 µM [rising, partial curve, poor fit] and the half-maximal activity concentration (AC50) under setting [2] was 18.4 µM [falling, single point].

As for `COC(=O)C1CCN(Cc2cn(-c3ccccc3)nc2-c2ccc3c(c2)OCO3)CC1`, the AC50 under setting [1] was 35.5 µM [falling, partial curve, poor fit].

For `CC1CCN(c2c(NCc3ccc(C(=O)NCc4ccco4)cc3)c(=O)c2=O)CC1`, the AC50 under setting [1] was 3.26 µM [rising, single point].

For the compound `CN1C(=O)NC(NC(=O)c2cccs2)(C(F)(F)F)C1=O` (configuration not stated), the AC50 under setting [1] was 2.06 µM [falling, partial curve, poor fit].

For `NS(=O)(=O)c1ccc(CCNC(=O)c2ccccc2OCc2ccc(F)cc2)cc1`, the AC50 under setting [1] is 35.5 µM [falling, partial curve, poor fit].

Consider `CCOC(=O)c1ccc(NC(=O)C2C3CCCCC32)cc1` (configuration not stated), for which the AC50 under setting [1] is 2.51 µM [rising, partial curve, poor fit].

As to `Cn1c(=O)c(=O)n(C)c2cc(S(=O)(=O)N3CCN(c4cccc(C(F)(F)F)c4)CC3)ccc21`, the concentration at half-maximal activity (AC50) under setting [1] was 10.3 µM [rising, partial curve, poor fit].

In the case of `CC(C)C(=O)C1=Cc2cccc([N+](=O)[O-])c2OC1N1CCOCC1` (configuration not stated), under setting [1], the AC50 was 18.4 µM [falling, single point].

For the compound `COc1cccc(F)c1C(C[N+](=O)[O-])c1c(N)n(C)c(=O)n(C)c1=O` (configuration not stated), the AC50 under setting [1] was 5.01 µM [falling, full curve].
